Measured data: PubChem BioAssay AID1159578 (Peter MacCallum Cancer Centre, 2015)
The whole screen tested about 18,000 reagents; this is a part drawn at random. In the full data, about 1,030 (5.7%) got an active call. 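Inactive calls also include pools with fewer than 3300 nuclei, whose migration was not assessed.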 The raw values are shown without normalisation.

Test: 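Knock-downs that alter how fast lymphatic endothelial cells migrate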 (primary screen)
Cell system: human lymphatic endothelial cells
Reagent: siRNA pool against human genes, 40 nM
Duration: 48 h after transfection
Read-out: 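High-content imaging of dye-stained cells in a scratch assay measures filled wound area and nuclei per well; duplicate means given as ratio to mock and robust z-score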
Scale: migration robust z-score: higher = faster migration into the scratch; migration relative to mock: higher = more scratch area covered than mock; nuclei per well: higher = more cells in the well
Hit rule: 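Migration changed when robust z exceeds 2 or falls below -2 and mean nuclei number is at least 3300; otherwise not called changed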
Calls: active = migration changed; inactive = no migration change, or too few cells

target	migration robust z-score	migration class with cell-count check	migration relative to mock	nuclei per well, duplicate mean	outcome
POMGNT1	-0.54	migration z between -2 and 2; enough cells	0.74	5388	inactive
THAP8	0.34	migration z between -2 and 2; enough cells	0.98	4725	inactive
ZKSCAN8	-0.62	migration z between -2 and 2; enough cells	0.73	5678	inactive
TCF20	-0.05	migration z between -2 and 2; enough cells	0.8	5901	inactive
TRIM35	-1.32	migration z between -2 and 2; enough cells	0.55	4820	inactive
TTLL8	0.12	migration z between -2 and 2; enough cells	0.91	6585	inactive
DAZ4	-0.68	migration z between -2 and 2; enough cells	0.7	5624	inactive
H4C7	0.68	migration z between -2 and 2; enough cells	1.06	5420	inactive
SPMAP1	-0.45	migration z between -2 and 2; enough cells	0.77	6802	inactive
CUTC	0.2	migration z between -2 and 2; enough cells	0.94	5819	inactive
ZNF649	0.42	migration z between -2 and 2; enough cells	1	6036	inactive
GPX4	-0.35	migration z between -2 and 2; enough cells	0.8	5453	inactive
UPP2	1.12	migration z between -2 and 2; enough cells	1.02	6050	inactive
MNT	0.62	migration z between -2 and 2; enough cells	0.92	6690	inactive
TEAD3	0.57	migration z between -2 and 2; enough cells	0.92	5835	inactive
ZNF610	-1.53	migration z between -2 and 2; enough cells	0.49	5336	inactive
SCRN2	-0.57	migration z between -2 and 2; enough cells	0.7	5360	inactive
CEBPA	-0.57	migration z between -2 and 2; enough cells	0.7	5658	inactive
DDX42	-1.48	migration z between -2 and 2; enough cells	0.5	5270	inactive
TMEM178A	-0.6	migration z between -2 and 2; enough cells	0.73	5652	inactive
HOXB8	-0.18	migration z between -2 and 2; enough cells	0.84	5437	inactive
HSPA1L	0.99	under 3300 nuclei; migration not judged	1	3284	inactive
MAGEB1	-0.24	migration z between -2 and 2; enough cells	0.82	6331	inactive
ATG4A	1.27	migration z between -2 and 2; enough cells	1.05	5360	inactive
MED28	-0.78	migration z between -2 and 2; enough cells	0.68	3332	inactive
TOMM40	-1.04	migration z between -2 and 2; enough cells	0.6	6666	inactive
KIF25	-0.83	migration z between -2 and 2; enough cells	0.64	5357	inactive
WTIP	0.36	migration z between -2 and 2; enough cells	0.98	5694	inactive
IGBP1	0.5	migration z between -2 and 2; enough cells	0.9	6618	inactive
ENKD1	-0.28	migration z between -2 and 2; enough cells	0.82	6472	inactive
CD84	-0.38	migration z between -2 and 2; enough cells	0.78	5680	inactive
ZNF69	-0.95	migration z between -2 and 2; enough cells	0.64	5204	inactive
TRMT1L	1.92	migration z between -2 and 2; enough cells	1.18	6110	inactive
ATP2C1	-0.02	migration z between -2 and 2; enough cells	0.8	5906	inactive
MRPS12	-0.29	migration z between -2 and 2; enough cells	0.81	3489	inactive
SST	-0.32	migration z between -2 and 2; enough cells	0.8	5608	inactive
SYNE4	0	migration z between -2 and 2; enough cells	0.88	6016	inactive
NEUROG2	1.15	migration z between -2 and 2; enough cells	1.19	7480	inactive
ULK2	0.11	migration z between -2 and 2; enough cells	0.82	5176	inactive
PRSS48	-0.68	migration z between -2 and 2; enough cells	0.68	5329	inactive
PCDH17	1.06	migration z between -2 and 2; enough cells	1.17	6380	inactive
MAPKAPK2	-2.44	migration z below -2; enough cells	0.34	3830	active
PRKY	0.46	migration z between -2 and 2; enough cells	0.9	5514	inactive
SOX9	-0.52	migration z between -2 and 2; enough cells	0.7	3852	inactive
MAPK1IP1L	-0.28	migration z between -2 and 2; enough cells	0.82	5648	inactive
ZNF653	0.69	migration z between -2 and 2; enough cells	1.06	5934	inactive
POFUT4	0.48	migration z between -2 and 2; enough cells	1.01	4860	inactive
SH3BGRL2	2.84	migration z above 2; enough cells	1.63	5858	active
SNRPC	-0.21	migration z between -2 and 2; enough cells	0.83	5780	inactive
STRA8	0.11	migration z between -2 and 2; enough cells	0.92	4232	inactive
GSPT1	2.56	migration z above 2; enough cells	1.3	5588	active
ZNF821	-1.08	migration z between -2 and 2; enough cells	0.6	4832	inactive
KBTBD6	0.32	migration z between -2 and 2; enough cells	0.98	6320	inactive
APOL2	-1.11	migration z between -2 and 2; enough cells	0.6	5280	inactive
MRPS16	0.26	migration z between -2 and 2; enough cells	0.95	5514	inactive
ACCSL	1.31	migration z between -2 and 2; enough cells	1.23	6687	inactive
HELQ	1.66	migration z between -2 and 2; enough cells	1.12	6510	inactive

Part of the list above in another layout.
| target | migration robust z-score | migration class with cell-count check | migration relative to mock | nuclei per well, duplicate mean | outcome |
| --- | --- | --- | --- | --- | --- |
| TMEM178A | -0.6 | migration z between -2 and 2; enough cells | 0.73 | 5652 | inactive |
| HOXB8 | -0.18 | migration z between -2 and 2; enough cells | 0.84 | 5437 | inactive |
| HSPA1L | 0.99 | under 3300 nuclei; migration not judged | 1 | 3284 | inactive |
| MAGEB1 | -0.24 | migration z between -2 and 2; enough cells | 0.82 | 6331 | inactive |
| ATG4A | 1.27 | migration z between -2 and 2; enough cells | 1.05 | 5360 | inactive |
| MED28 | -0.78 | migration z between -2 and 2; enough cells | 0.68 | 3332 | inactive |
| TOMM40 | -1.04 | migration z between -2 and 2; enough cells | 0.6 | 6666 | inactive |
| KIF25 | -0.83 | migration z between -2 and 2; enough cells | 0.64 | 5357 | inactive |
